Structures were worked out from names or drawings and are uncertain.
Target: recombinant human GST-Syk (Homo sapiens (Human), UniProt P43405)
Assay: Homogeneous Time-Resolved Fluorescence (HTRF) assay for the recombinant human Syk enzyme
Assay type: biochemical
Conditions: read-out: rhSyk IC50, recombinant human GST-Syk 5 pM, ATP 25 μM

IC50: 16 nM
Structure (SMILES): Cc1ccnc(Nc2cc(C)cc(-c3ccc(NC(C)(C)C(=O)O)nc3)n2)c1 [2-8]
